PubChem BioAssay AID1159578, Peter MacCallum Cancer Centre | 2015
Aim: 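Genome-wide hunt for genes controlling movement of lymphatic endothelial cells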 (primary screen). Cell system: human lymphatic endothelial cells. Knock-down reagent: siRNA pool against human genes, 40 nM. Duration: 48 h after transfection. Read-out: 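Cells stained with dye and imaged after a scratch; covered wound area and nuclei counted, duplicates averaged, migration set against mock wells and turned into a robust z-score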. Reading the numbers: migration robust z-score: higher = faster migration into the scratch; migration relative to mock: higher = more scratch area covered than mock; nuclei per well: higher = more cells in the well. Rule for the call: 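Migration changed when robust z exceeds 2 or falls below -2 and mean nuclei number is at least 3300; otherwise not called changed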. Calls: active = migration changed; inactive = no migration change, or too few cells.
In all, the deposit lists about 18,000 reagents; this is a part drawn at random. About 1,030 of all reagents (5.7%) were called active. 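Inactive calls also include pools with fewer than 3300 nuclei, whose migration was not assessed.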 Raw values are not corrected between plates. Unmarked entries are inactive.

no.	Target gene	migration robust z-score	migration class with cell-count check	migration relative to mock	nuclei per well, duplicate mean
1	CTSA	0.52	migration z between -2 and 2; enough cells	0.9	5994
2	PCMT1	0.88	migration z between -2 and 2; enough cells	0.98	7007
3	TAS2R1	1.38	migration z between -2 and 2; enough cells	1.24	5858
4	LRRC1	0.06	migration z between -2 and 2; enough cells	0.9	6352
5	GREB1	1.45	migration z between -2 and 2; enough cells	1.26	6046
6	CDK17	0.05	migration z between -2 and 2; enough cells	0.82	6972
7	ZNF273	2.25 (active)	migration z above 2; enough cells	1.47	6091
8	CDIPT	0.34	migration z between -2 and 2; enough cells	0.87	6267
9	ADD2	0.64	migration z between -2 and 2; enough cells	1.05	5759
10	FBXO33	0.57	migration z between -2 and 2; enough cells	0.92	5342
11	ZNF488	-0.02	migration z between -2 and 2; enough cells	0.88	5088
12	ZFYVE21	-0.48	migration z between -2 and 2; enough cells	0.76	5128
13	SPO11	-1.09	migration z between -2 and 2; enough cells	0.6	6029
14	MTPAP	0.63	migration z between -2 and 2; enough cells	1.05	6137
15	C1orf50	-0.4	migration z between -2 and 2; enough cells	0.78	5424
16	SP110	-0.72	migration z between -2 and 2; enough cells	0.7	5398
17	PAN2	-0.42	migration z between -2 and 2; enough cells	0.73	4342
18	PSMD11	-0.22	migration z between -2 and 2; enough cells	0.82	6616
19	NSL1	0.95	migration z between -2 and 2; enough cells	1.12	6438
20	MRPL48	1.24	migration z between -2 and 2; enough cells	1.21	7035
21	ZCRB1	0.97	migration z between -2 and 2; enough cells	1.14	6016
22	TJP1	0.42	migration z between -2 and 2; enough cells	0.88	6576
23	VPS13C	-0.36	migration z between -2 and 2; enough cells	0.79	5870
24	SERPINB7	1.54	migration z between -2 and 2; enough cells	1.29	6261
25	LRIF1	-0.08	migration z between -2 and 2; enough cells	0.86	7401

Reagents listed so far called active (1):
Target gene	migration robust z-score	migration class with cell-count check	migration relative to mock	nuclei per well, duplicate mean
ZNF273	2.25 (active)	migration z above 2; enough cells	1.47	6091

Next reagents:
no.	Target gene	migration robust z-score	migration class with cell-count check	migration relative to mock	nuclei per well, duplicate mean
26	DISP2	0.69	migration z between -2 and 2; enough cells	1.06	5875
27	CHAT	0.96	migration z between -2 and 2; enough cells	0.99	5282
28	GAS7	1.53	migration z between -2 and 2; enough cells	1.1	6418
29	RS1	0.82	migration z between -2 and 2; enough cells	1.09	6506
30	POU2F2	0.49	migration z between -2 and 2; enough cells	0.9	5510
31	TRAPPC6B	1.32	migration z between -2 and 2; enough cells	1.23	6476
32	EPHA2	-0.21	migration z between -2 and 2; enough cells	0.76	4524
33	DPT	-1.36	migration z between -2 and 2; enough cells	0.53	6701
34	C3P1	2.29 (active)	migration z above 2; enough cells	1.48	6630
35	LRSAM1	-3.12 (active)	migration z below -2; enough cells	0.2	4049
36	AMER2	-1.9	migration z between -2 and 2; enough cells	0.4	5743
37	PLEKHM3	0.1	migration z between -2 and 2; enough cells	0.92	5649
38	CDR2	0.36	migration z between -2 and 2; enough cells	0.98	5078
39	GJA5	0.31	migration z between -2 and 2; enough cells	0.86	6412
40	ST8SIA1	-0.62	migration z between -2 and 2; enough cells	0.68	4913
41	BIRC6	2.13 (active)	migration z above 2; enough cells	1.21	5277
42	TXNDC16	-0.02	migration z between -2 and 2; enough cells	0.8	6450
43	OR8G2P	-0.01	migration z between -2 and 2; enough cells	0.88	5998
44	RCN1	-0.22	migration z between -2 and 2; enough cells	0.83	5389
45	MYH9	-0.8	migration z between -2 and 2; enough cells	0.65	4338
46	ZFP1	-0.3	migration z between -2 and 2; enough cells	0.8	5610
47	URM1	-1.07	migration z between -2 and 2; enough cells	0.61	3460
48	LYPD4	0.71	migration z between -2 and 2; enough cells	1.07	7540
49	PIGZ	-0.04	migration z between -2 and 2; enough cells	0.88	5427
50	MISO1	0.55	migration z between -2 and 2; enough cells	1.02	5946
51	PPP2R3C	0.4	migration z between -2 and 2; enough cells	0.99	4918
52	OR56A4	0.45	migration z between -2 and 2; enough cells	0.99	5826
53	MOB3A	-3.51 (active)	migration z below -2; enough cells	-0.03	4477
54	CELSR1	0.16	migration z between -2 and 2; enough cells	0.84	5368
55	SGCA	-1.53	migration z between -2 and 2; enough cells	0.49	5550
56	TMX4	0.21	migration z between -2 and 2; enough cells	0.84	5885
57	ST14	-1.84	migration z between -2 and 2; enough cells	0.45	5286
